The results are deposited in PubChem (AID1053133; Broad Institute, 2014).

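Plate-reader measure of the Venus reporter marking one vaccinia stage in infected cells (the cell line is not named here); read time unknown.
The test concentration is not given here.
Percent change in Venus reporter signal; lower (more negative) values mean stronger inhibition of that viral stage.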

Values are in %.
The controls that fix the scale are not given here.
Common to all entries: measured here: Venus reporter, other viral stage.
This is a side read-out of the assay, for part of the compounds, not drawn at random.

C[C@H]1CCCCO[C@@H](CN(C)Cc2ccc(C(F)(F)F)cc2)[C@@H](C)CN([C@@H](C)CO)C(=O)c2cc(NS(=O)(=O)c3ccc(F)cc3)ccc2O1 read activity change (Venus) -53.86%. For C[C@H](CO)N1C[C@H](C)[C@@H](CN(C)CC2CCCCC2)OCCCC[C@H](C)Oc2ccc(NC(=O)Nc3ccc(F)cc3)cc2C1=O the result was activity change (Venus) -64.24%. COc1ccc(NC(=O)Nc2ccc3c(c2)[C@@H]2C[C@@H](CC(=O)N4CCc5ccccc5C4)O[C@H](CO)[C@@H]2O3)cc1 gave activity change (Venus) -22.96%. Result for C[C@@H]1CN([C@H](C)CO)C(=O)CCCn2nncc2CO[C@H]1CN(C)Cc1ccc2c(c1)OCCN2C was activity change (Venus) -49.01%. Result for COc1ccc(NC(=O)Nc2ccc3c(c2)C(=O)N([C@H](C)CO)C[C@H](C)[C@@H](CN(C)CC2CCCCC2)OCCCC[C@H](C)O3)cc1 was activity change (Venus) -39.29%. COc1ccccc1CN1C(=O)c2ccccc2[C@](Cc2ccccc2I)(C(=O)NCCN2CCOCC2)[C@@H]1c1ccc(CO)cc1 gave activity change (Venus) -49.89%.

C[C@@H]1CN([C@@H](C)CO)C(=O)c2cc(C#Cc3ccccc3F)cnc2O[C@@H]1CN(C)C(=O)Cc1ccccc1 gave activity change (Venus) -38.02%. With C[C@@H]1CCCCO[C@@H](CN(C)Cc2ccccc2)[C@H](C)CN([C@H](C)CO)C(=O)c2cc(NS(=O)(=O)c3ccccc3)ccc2O1 the assay gave activity change (Venus) -30.97%. Result for C[C@H](CO)N1C[C@H](C)[C@H](CN(C)Cc2ccc(Oc3ccccc3)cc2)Oc2ccc(NC(=O)Nc3ccc(F)cc3)cc2C1=O was activity change (Venus) -40.2%. C[C@H](CO)N1C[C@H](C)[C@H](CN(C)S(=O)(=O)c2cn(C)cn2)Oc2ncc(C#Cc3ccc(C(F)(F)F)cc3)cc2C1=O read activity change (Venus) -35.03%. CC(C)CC#Cc1ccc2c(c1)O[C@@H](CN(C)C(=O)c1cccc(F)c1)[C@H](C)CN([C@H](C)CO)S2(=O)=O gave activity change (Venus) -58.49%. Result for COc1ccc(NC(=O)Nc2ccc3c(c2)C(=O)N([C@@H](C)CO)C[C@@H](C)[C@H](CN(C)Cc2ccc(-c4ccccc4)cc2)O3)cc1 was activity change (Venus) -52.17%.

With c1ccc(CN2C[C@@H]3N[C@H](C2)C3c2ccc(-c3ccccc3)cc2)cc1 (some centres undefined) the assay gave activity change (Venus) -53.22%. Cc1ccccc1-c1ccc2c(c1)O[C@H](CN(C)C(=O)Nc1ccccc1)[C@@H](C)CN([C@@H](C)CO)S2(=O)=O gave activity change (Venus) -32.22%. Result for CN(C)CCCNC(=O)C[C@@H]1CC[C@H]2[C@@H](COC[C@@H](O)CN2Cc2ccc(Cl)c(Cl)c2)O1 was activity change (Venus) -38.72%. C[C@@H]1CN([C@@H](C)CO)C(=O)c2cccc(NC(=O)c3ccc(-c4nccs4)cc3)c2O[C@H]1CN(C)Cc1ccc(Cl)c(Cl)c1 read activity change (Venus) -65.36%. COc1ccc2c3c(n(C)c2c1)[C@H](CO)N(S(=O)(=O)c1ccccc1)CC31CCN(C)CC1 read activity change (Venus) -42.24%. With C[C@@H](NC(=O)C[C@@H]1CC[C@@H]2[C@H](COC[C@@H](O)CN2C(=O)Nc2cc(Cl)cc(Cl)c2)O1)c1ccccc1 the assay gave activity change (Venus) -72.38%.

C[C@@H]1CCCCO[C@H](CN(C)CC2CCCCC2)[C@H](C)CN([C@H](C)CO)C(=O)c2cc(NS(=O)(=O)c3cccs3)ccc2O1 gave activity change (Venus) -48.22%. For COc1cccc(C#Cc2ccc([C@@H]3[C@@H](CO)N4C(=O)CN(C(=O)Cc5ccccc5)C[C@H]34)cc2)c1 the result was activity change (Venus) -34.58%. C[C@H](CO)N1C[C@H](C)[C@H](CN(C)CC2CCOCC2)Oc2cc(C#Cc3ccccc3F)ccc2S1(=O)=O read activity change (Venus) -57.53%. Result for C[C@H](CO)N1C[C@H](C)[C@@H](CN(C)Cc2cccc(C(=O)O)c2)Oc2cc(C3=CCCCC3)ccc2S1(=O)=O was activity change (Venus) -38.74%. Result for C[C@H]1CCCCO[C@@H](CN(C)Cc2ccncc2)[C@@H](C)CN([C@@H](C)CO)C(=O)c2cc(NC(=O)Nc3ccc4c(c3)OCO4)ccc2O1 was activity change (Venus) -30.49%. O=C(CC1CC1)N1CC(=O)N2[C@H](CO)[C@@H](c3ccc(C#Cc4ccc(F)cc4)cc3)[C@@H]2C1 read activity change (Venus) -30.67%.

With COc1cccc(NC(=O)N(C)C[C@@H]2Oc3ncc(C#Cc4ccc(F)cc4)cc3C(=O)N([C@@H](C)CO)C[C@@H]2C)c1 the assay gave activity change (Venus) -36.64%.